Patent US20260055176A1
Results are given in words; binding and its absence hold for the method and conditions named. Some results given as binding are weak or reduced against the parent protein; the word gives no strength.

Sequences of proteins named here, by UniProt entry; tags and fusion partners are left off. A change or cut given only in a name is not applied to a line headed by its entry.
UniProt Q6UWB1: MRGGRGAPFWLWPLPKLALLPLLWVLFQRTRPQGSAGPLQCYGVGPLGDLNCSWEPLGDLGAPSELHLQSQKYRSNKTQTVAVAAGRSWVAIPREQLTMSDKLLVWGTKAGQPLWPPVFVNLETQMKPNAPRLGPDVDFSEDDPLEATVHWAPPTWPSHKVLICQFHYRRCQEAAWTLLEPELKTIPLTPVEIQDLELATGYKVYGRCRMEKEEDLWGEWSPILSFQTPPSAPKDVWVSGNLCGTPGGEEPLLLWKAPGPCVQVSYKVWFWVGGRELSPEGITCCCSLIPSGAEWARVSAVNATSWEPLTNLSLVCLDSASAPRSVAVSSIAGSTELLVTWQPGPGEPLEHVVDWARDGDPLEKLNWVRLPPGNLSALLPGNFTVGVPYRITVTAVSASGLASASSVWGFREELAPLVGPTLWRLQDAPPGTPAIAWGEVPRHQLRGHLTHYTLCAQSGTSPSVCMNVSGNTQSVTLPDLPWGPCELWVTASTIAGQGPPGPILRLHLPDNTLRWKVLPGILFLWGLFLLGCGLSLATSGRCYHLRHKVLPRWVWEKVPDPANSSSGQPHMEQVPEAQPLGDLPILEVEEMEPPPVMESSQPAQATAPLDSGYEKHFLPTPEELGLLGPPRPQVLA

Biological target: human IL-27RA (WSX-1) (human) (UniProt Q6UWB1)
Assay: hybridoma from Harbour H2L2 mice immunised with human WSX-1 DNA; no binding data printed

- binding: binds
B1: 8B11 (antibody, IgG1, V domains shown)
VH: QVQLQQSGPGLVKPSQTLSLTCAISGYSVSSNNAAWNWIRQSPSRGLEWLGRTYYRSKWYNDYALSVKSRVTINPDTSKNQFSLHLNPVTPEDTALYFCARGLPMVPFDSWGQGTLVTVSS
VL: DIQMTQSPSTLSASVGDRVTITCRASQSISSWLAWYQQKPGKAPKLLIYKASSLESGVPSRFSGSGSGTEFTLTISSLQPDDFATYFCQQYDSFSMYTFGQGTKLEIK
